This is one part of the list.
Key:
Test in all cases: glycan array binding signal (z-score within array); higher = stronger binding
Conditions in all cases: glycan notation: IUPAC condensed, linker removed; mutation: R201A
[1] = biological target: Fuc(a1-2)Gal(b1-4)GlcNAc(b1-3)Gal(b1-4)GlcNAc(b1-2)Man(a1-3)[Fuc(a1-2)Gal(b1-4)GlcNAc(b1-3)Gal(b1-4)GlcNAc(b1-2)Man(a1-6)]Man(b1-4)GlcNAc(b1-4)GlcNAc
Method in brief: (§1)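 Glycan array data came from 3228 arrays in the Consortium for Functional Glycomics database, and only arrays with an available protein sequence were kept. Glycan names were put into IUPAC-condensed notation, and columns mapping to the same glycan were averaged. The binding signal is a within-array Z-score, averaged across arrays of one protein sequence run at different concentrations or buffers and across linkers. A negative Z-score can be read as non-binding.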

[2] = biological target: Fuc(a1-2)Gal(b1-4)GlcNAc(b1-3)Gal(b1-4)GlcNAc(b1-3)Gal(b1-4)GlcNAc
Method in brief: as §1

[3] = biological target: Fuc(a1-2)Gal(b1-4)GlcNAc(b1-3)GalNAc
Method in brief: as §1

[4] = biological target: Fuc(a1-2)Gal(b1-4)GlcNAc(b1-3)[Fuc(a1-2)Gal(b1-4)GlcNAc(b1-6)]GalNAc
Method in brief: as §1

[5] = biological target: Fuc(a1-2)Gal(b1-4)GlcNAc(b1-3)[Fuc(a1-3)[Gal(b1-4)]GlcNAc(b1-6)]Gal(b1-4)Glc
Method in brief: as §1

[6] = biological target: Fuc(a1-2)Gal(b1-4)GlcNAc(b1-6)GalNAc
Method in brief: as §1

[7] = biological target: Fuc(a1-2)Gal(b1-4)GlcNAc6S
Method in brief: as §1

[8] = biological target: Fuc(a1-2)Gal(b1-4)[Fuc(a1-3)]GlcNAc
Method in brief: as §1

[9] = biological target: Fuc(a1-2)Gal(b1-4)[Fuc(a1-3)]GlcNAc(b1-2)Man(a1-3)[Fuc(a1-2)Gal(b1-4)[Fuc(a1-3)]GlcNAc(b1-2)Man(a1-6)]Man(b1-4)GlcNAc(b1-4)[Fuc(a1-6)]GlcNAc
Method in brief: as §1

[10] = biological target: Fuc(a1-2)Gal(b1-4)[Fuc(a1-3)]GlcNAc(b1-2)[Fuc(a1-2)Gal(b1-4)[Fuc(a1-3)]GlcNAc(b1-4)]Man(a1-3)[Fuc(a1-2)Gal(b1-4)[Fuc(a1-3)]GlcNAc(b1-2)Man(a1-6)]Man(b1-4)GlcNAc(b1-4)GlcNAc
Method in brief: as §1

[11] = biological target: Fuc(a1-2)Gal(b1-4)[Fuc(a1-3)]GlcNAc(b1-3)Gal(b1-4)[Fuc(a1-3)]GlcNAc
Method in brief: as §1

[12] = biological target: Fuc(a1-2)Gal(b1-4)[Fuc(a1-3)]GlcNAc(b1-3)Gal(b1-4)[Fuc(a1-3)]GlcNAc(b1-3)Gal(b1-4)[Fuc(a1-3)]GlcNAc
Method in brief: as §1

[13] = biological target: Fuc(a1-2)Gal(b1-4)[Fuc(a1-3)]GlcNAc(b1-3)GalNAc
Method in brief: as §1

[14] = biological target: Fuc(a1-2)Gal(b1-4)[Fuc(a1-3)]GlcNAc(b1-3)[Neu5Ac(a2-6)Gal(b1-4)GlcNAc(b1-6)]Gal(b1-4)Glc
Method in brief: as §1

[15] = biological target: Fuc(a1-2)Gal3S(b1-4)GlcNAc
Method in brief: as §1

[16] = biological target: Fuc(a1-2)Gal6S(b1-3)GlcNAc
Method in brief: as §1

[17] = biological target: Fuc(a1-2)Gal6S(b1-3)GlcNAc6S
Method in brief: as §1

Fuc(a1-2)Gal6S(b1-4)Glc = biological target: Fuc(a1-2)Gal6S(b1-4)Glc
Method in brief: as §1

[18] = biological target: Fuc(a1-2)Gal6S(b1-4)Glc6S
Method in brief: as §1

Fuc(a1-2)[Gal(a1-3)]Gal = biological target: Fuc(a1-2)[Gal(a1-3)]Gal
Method in brief: as §1

[19] = biological target: Fuc(a1-2)[Gal(a1-3)]Gal(b1-3)GalNAc
Method in brief: as §1

[20] = biological target: Fuc(a1-2)[Gal(a1-3)]Gal(b1-3)GalNAc(b1-3)Gal(a1-4)Gal(b1-4)Glc
Method in brief: as §1

[21] = biological target: Fuc(a1-2)[Gal(a1-3)]Gal(b1-3)GlcNAc
Method in brief: as §1

[22] = biological target: Fuc(a1-2)[Gal(a1-3)]Gal(b1-3)GlcNAc(b1-2)Man(a1-3)[Fuc(a1-2)[Gal(a1-3)]Gal(b1-3)GlcNAc(b1-2)Man(a1-6)]Man(b1-4)GlcNAc(b1-4)GlcNAc
Method in brief: as §1

[23] = biological target: Fuc(a1-2)[Gal(a1-3)]Gal(b1-3)GlcNAc(b1-2)Man(a1-3)[Fuc(a1-2)[Gal(a1-3)]Gal(b1-3)GlcNAc(b1-2)Man(a1-6)]Man(b1-4)GlcNAc(b1-4)[Fuc(a1-6)]GlcNAc
Method in brief: as §1

[24] = biological target: Fuc(a1-2)[Gal(a1-3)]Gal(b1-3)GlcNAc(b1-3)GalNAc
Method in brief: as §1

[25] = biological target: Fuc(a1-2)[Gal(a1-3)]Gal(b1-3)GlcNAc(b1-6)GalNAc
Method in brief: as §1

[26] = biological target: Fuc(a1-2)[Gal(a1-3)]Gal(b1-4)Glc
Method in brief: as §1

[27] = biological target: Fuc(a1-2)[Gal(a1-3)]Gal(b1-4)GlcNAc
Method in brief: as §1

[28] = biological target: Fuc(a1-2)[Gal(a1-3)]Gal(b1-4)GlcNAc(b1-2)Man
Method in brief: as §1

B1: OS9 (Arabidopsis thaliana) (protein)
chain: MRGSHHHHHHGMASMTGGQQMGRDLYDDDDKSRLQIFPAHLVGTFSRNNREPKYKIEFLPEDSPFHPGDNLESMVMLDKHGNRFLCYLPKEEKATSGWTSSQQNISTVMMETQQLVKLKTPDELLQPLSEKCLFRQEGWWSYEFCHQKYVRQLHVEDENKIVQEFFLGTFDPEATAAFNQTVSDASTDASQRYHSHVYTNGTTCDLTGSPAEVEVRFVCAETRAMVTSITELSTCKYALTVQCPTLCKHPLFQLEKPVSHTIHCNAIPVEEDATRNKEEQAVDESPKMIADS
glycan array binding signal (z-score) [1]: -0.059 | glycan array binding signal (z-score) [2]: -0.84 | glycan array binding signal (z-score) [3]: -0.821 | glycan array binding signal (z-score) [4]: -0.834 | glycan array binding signal (z-score) [5]: -0.817 | glycan array binding signal (z-score) [6]: -1.24 | glycan array binding signal (z-score) [7]: -0.26 | glycan array binding signal (z-score) [8]: -0.195 | glycan array binding signal (z-score) [9]: 0.249 | glycan array binding signal (z-score) [10]: 0.609 | glycan array binding signal (z-score) [11]: 0.038 | glycan array binding signal (z-score) [12]: 0.684 | glycan array binding signal (z-score) [13]: 0.155 | glycan array binding signal (z-score) [14]: -0.261 | glycan array binding signal (z-score) [15]: -1.05 | glycan array binding signal (z-score) [16]: 0.666 | glycan array binding signal (z-score) [17]: 0.575 | glycan array binding signal (z-score) (Fuc(a1-2)Gal6S(b1-4)Glc): 0.363 | glycan array binding signal (z-score) [18]: 0.982 | glycan array binding signal (z-score) (Fuc(a1-2)[Gal(a1-3)]Gal): -0.727 | glycan array binding signal (z-score) [19]: 0.19 | glycan array binding signal (z-score) [20]: -1.04 | glycan array binding signal (z-score) [21]: -0.124 | glycan array binding signal (z-score) [22]: -0.718 | glycan array binding signal (z-score) [23]: 0.163 | glycan array binding signal (z-score) [24]: -0.217 | glycan array binding signal (z-score) [25]: -0.469 | glycan array binding signal (z-score) [26]: -1.11 | glycan array binding signal (z-score) [27]: -0.917 | glycan array binding signal (z-score) [28]: -0.752
